Reference: paper PMC3050892
Results are given in words; binding and its absence hold for the method and conditions named. Binding can be weak; no strength is given.

Legend:
[1] = target: T1, human FEZ1 (221–392) (human) (UniProt Q99689); assay: two-hybrid; LexA-bait fusions (pBTM116) of FEZ2 (207-353), FEZ1 (221-392) or UNC-76 C-terminus against pACT2 prey clones in yeast L40; clones first isolated in library screens (human fetal brain and bone marrow cDNA) with the FEZ2 bait, then one representative clone of each prey tested one-to-one against the three baits; growth on minimal medium without Trp, Leu, His (10 mM 3-AT in the screen) and beta-galactosidase filter assay; in duplicate
T1 sequence: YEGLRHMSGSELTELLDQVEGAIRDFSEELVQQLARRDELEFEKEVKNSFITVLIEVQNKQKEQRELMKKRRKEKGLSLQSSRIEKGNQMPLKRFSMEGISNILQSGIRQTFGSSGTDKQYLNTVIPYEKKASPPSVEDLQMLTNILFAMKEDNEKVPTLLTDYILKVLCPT

[2] = target: T2, human FEZ2 (207–353) (human) (UniProt Q9UHY8); assay: as above
T2 sequence: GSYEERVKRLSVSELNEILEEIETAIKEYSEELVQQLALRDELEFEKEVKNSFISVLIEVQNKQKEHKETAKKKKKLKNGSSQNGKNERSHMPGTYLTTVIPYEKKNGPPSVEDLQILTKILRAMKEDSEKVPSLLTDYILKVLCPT

Row | binding [1] | binding [2] | Substance
1 | no binding | binds | general transcription factor II i repeat domain 2 (human) (domain or fragment)
2 | binds | binds | short coiled-coil protein, isoform CRA_a (human) (domain or fragment)
